No constants are given. Whether binding was seen depends on the method and setting. In cells and extracts the contact can be indirect. A yes stands for co-enrichment or nearness to the bait. Other partners may have been found.
Target: Flag-tagged human NLRP3 (human) (UniProt Q96P20)
Assay: affinity purification with mass spectrometry; lysates of THP-1 cells expressing Flag-tagged NLRP3 incubated with anti-Flag M2 beads for 6 hours at 4°C; IP lysis buffer (150 mM NaCl, 100 mM tris-HCl pH 8.0, 0.5% Triton X-100, 2 mM EDTA); LTQ-Orbitrap Velos

Chains of the proteins cited; added tags and fusions are not shown.
UniProt Q96P20: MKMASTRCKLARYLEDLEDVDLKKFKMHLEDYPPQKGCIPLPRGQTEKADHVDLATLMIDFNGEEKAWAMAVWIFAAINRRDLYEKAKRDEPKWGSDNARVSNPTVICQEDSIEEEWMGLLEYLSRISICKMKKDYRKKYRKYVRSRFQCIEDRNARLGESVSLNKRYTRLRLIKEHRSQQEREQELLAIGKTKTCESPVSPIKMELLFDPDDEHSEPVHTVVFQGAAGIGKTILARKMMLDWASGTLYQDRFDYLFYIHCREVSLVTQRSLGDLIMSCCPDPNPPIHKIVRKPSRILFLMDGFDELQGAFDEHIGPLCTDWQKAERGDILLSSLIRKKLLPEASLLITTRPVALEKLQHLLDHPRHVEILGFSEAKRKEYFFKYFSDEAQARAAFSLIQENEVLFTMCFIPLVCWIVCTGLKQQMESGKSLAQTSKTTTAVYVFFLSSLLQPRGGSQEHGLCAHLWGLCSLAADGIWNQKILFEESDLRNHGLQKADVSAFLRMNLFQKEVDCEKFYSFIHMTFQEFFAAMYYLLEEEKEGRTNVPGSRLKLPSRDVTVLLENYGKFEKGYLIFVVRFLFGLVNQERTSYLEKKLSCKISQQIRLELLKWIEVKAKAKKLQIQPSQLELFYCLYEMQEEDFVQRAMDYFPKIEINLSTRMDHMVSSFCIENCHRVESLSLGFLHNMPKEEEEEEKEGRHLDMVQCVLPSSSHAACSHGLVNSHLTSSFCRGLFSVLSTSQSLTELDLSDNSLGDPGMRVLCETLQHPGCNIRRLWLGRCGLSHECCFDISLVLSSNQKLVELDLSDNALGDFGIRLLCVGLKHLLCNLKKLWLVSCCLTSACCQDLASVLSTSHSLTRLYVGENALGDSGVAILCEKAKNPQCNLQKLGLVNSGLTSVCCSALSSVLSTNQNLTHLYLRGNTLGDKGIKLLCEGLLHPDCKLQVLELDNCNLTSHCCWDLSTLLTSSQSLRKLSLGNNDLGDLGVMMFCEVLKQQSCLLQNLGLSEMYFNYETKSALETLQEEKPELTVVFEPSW
UniProt Q93008: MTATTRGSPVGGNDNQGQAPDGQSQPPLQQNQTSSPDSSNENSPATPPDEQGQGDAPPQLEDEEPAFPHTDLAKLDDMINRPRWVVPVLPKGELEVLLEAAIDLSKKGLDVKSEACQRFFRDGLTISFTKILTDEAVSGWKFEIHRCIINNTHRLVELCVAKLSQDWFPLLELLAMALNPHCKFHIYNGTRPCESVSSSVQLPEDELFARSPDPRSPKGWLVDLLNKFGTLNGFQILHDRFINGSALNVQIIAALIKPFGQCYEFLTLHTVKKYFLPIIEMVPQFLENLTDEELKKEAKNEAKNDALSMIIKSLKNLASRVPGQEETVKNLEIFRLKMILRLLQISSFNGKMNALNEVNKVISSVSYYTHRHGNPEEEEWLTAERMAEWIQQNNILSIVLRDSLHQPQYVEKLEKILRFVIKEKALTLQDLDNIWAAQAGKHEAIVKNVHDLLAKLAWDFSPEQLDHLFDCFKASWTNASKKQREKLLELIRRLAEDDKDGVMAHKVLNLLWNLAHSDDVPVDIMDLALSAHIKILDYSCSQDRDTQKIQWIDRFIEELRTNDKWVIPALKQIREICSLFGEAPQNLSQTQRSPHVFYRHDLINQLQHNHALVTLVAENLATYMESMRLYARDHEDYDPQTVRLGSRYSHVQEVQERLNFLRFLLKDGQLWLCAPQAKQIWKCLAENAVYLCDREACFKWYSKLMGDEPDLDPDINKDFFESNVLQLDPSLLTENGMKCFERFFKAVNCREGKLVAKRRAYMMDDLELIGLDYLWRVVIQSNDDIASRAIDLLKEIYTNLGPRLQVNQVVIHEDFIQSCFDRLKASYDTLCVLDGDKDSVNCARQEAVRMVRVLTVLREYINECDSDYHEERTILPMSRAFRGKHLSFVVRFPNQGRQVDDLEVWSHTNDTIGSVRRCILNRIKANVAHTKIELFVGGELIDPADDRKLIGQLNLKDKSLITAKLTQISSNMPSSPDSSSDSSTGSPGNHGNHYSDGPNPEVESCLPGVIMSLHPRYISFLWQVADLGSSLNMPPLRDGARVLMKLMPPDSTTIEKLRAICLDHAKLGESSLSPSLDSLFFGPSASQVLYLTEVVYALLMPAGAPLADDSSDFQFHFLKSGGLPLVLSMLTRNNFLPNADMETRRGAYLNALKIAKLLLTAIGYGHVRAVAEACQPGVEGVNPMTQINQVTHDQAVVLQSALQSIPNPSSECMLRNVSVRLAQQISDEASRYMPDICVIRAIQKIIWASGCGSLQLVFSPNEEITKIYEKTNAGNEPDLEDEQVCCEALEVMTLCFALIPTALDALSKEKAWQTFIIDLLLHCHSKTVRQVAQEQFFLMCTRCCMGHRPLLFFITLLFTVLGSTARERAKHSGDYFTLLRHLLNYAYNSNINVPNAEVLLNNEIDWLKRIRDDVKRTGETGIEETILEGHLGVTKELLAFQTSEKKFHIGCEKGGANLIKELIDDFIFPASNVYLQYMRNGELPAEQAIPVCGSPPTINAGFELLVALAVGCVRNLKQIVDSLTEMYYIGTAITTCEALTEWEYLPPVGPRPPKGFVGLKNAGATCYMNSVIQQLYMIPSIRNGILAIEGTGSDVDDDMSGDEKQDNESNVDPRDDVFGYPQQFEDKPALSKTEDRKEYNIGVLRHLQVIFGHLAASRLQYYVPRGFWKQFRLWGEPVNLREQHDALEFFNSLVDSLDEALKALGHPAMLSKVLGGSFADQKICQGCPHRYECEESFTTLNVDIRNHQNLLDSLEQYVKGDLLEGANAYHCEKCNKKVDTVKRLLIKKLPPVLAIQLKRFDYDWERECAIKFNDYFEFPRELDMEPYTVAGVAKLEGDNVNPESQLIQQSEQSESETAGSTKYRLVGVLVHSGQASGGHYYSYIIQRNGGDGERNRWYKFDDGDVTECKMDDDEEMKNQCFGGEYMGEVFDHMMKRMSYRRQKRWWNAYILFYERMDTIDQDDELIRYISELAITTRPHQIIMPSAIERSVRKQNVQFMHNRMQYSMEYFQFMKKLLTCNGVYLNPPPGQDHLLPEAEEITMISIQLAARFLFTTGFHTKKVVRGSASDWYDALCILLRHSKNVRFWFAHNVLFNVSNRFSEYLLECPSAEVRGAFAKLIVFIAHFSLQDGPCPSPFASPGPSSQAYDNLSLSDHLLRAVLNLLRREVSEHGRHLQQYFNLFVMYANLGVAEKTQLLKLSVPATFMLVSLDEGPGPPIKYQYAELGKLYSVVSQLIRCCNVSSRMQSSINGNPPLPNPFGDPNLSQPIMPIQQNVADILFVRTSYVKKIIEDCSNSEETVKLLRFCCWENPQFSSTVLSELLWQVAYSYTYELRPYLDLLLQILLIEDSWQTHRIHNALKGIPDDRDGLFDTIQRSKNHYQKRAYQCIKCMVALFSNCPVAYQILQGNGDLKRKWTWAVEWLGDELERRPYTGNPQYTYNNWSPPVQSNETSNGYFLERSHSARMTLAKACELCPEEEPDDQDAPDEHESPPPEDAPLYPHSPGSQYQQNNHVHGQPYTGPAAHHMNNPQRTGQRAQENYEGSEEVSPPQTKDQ
UniProt Q93009: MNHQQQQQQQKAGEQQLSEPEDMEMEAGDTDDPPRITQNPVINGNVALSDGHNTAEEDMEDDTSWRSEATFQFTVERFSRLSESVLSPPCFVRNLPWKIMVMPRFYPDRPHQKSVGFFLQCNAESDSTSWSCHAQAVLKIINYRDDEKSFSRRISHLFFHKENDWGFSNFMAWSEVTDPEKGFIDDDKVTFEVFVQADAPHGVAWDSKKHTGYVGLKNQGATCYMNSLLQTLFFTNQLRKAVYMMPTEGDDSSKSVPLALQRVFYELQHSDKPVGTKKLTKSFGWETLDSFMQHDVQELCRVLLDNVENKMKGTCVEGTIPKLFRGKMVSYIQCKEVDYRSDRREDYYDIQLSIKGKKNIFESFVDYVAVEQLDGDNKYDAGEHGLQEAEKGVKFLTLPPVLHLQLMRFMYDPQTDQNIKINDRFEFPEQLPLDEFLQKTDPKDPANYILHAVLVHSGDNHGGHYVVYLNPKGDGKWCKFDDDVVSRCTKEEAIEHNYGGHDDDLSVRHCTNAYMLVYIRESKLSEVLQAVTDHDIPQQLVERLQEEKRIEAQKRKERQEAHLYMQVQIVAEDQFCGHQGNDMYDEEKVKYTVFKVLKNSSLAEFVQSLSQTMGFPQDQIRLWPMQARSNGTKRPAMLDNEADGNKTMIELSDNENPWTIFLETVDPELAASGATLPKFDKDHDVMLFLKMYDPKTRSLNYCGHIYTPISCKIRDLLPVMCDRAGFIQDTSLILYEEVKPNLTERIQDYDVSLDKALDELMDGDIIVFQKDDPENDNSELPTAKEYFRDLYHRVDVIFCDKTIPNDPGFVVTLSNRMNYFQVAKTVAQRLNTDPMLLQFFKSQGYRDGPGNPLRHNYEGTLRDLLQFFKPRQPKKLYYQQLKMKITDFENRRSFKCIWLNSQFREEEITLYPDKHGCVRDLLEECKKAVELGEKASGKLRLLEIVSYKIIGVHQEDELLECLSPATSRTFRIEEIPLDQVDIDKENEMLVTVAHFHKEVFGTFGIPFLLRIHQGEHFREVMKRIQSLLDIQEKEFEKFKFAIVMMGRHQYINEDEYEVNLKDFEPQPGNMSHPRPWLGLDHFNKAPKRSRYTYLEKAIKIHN
UniProt P46736: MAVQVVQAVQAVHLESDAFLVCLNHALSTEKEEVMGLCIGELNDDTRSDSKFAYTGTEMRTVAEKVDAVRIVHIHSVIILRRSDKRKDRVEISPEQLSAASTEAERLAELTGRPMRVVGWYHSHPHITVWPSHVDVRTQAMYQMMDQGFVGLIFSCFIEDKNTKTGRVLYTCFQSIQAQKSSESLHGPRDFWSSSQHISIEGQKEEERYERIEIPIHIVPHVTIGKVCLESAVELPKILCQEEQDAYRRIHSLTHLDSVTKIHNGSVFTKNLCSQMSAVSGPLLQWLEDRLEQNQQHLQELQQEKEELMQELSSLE
UniProt O15372: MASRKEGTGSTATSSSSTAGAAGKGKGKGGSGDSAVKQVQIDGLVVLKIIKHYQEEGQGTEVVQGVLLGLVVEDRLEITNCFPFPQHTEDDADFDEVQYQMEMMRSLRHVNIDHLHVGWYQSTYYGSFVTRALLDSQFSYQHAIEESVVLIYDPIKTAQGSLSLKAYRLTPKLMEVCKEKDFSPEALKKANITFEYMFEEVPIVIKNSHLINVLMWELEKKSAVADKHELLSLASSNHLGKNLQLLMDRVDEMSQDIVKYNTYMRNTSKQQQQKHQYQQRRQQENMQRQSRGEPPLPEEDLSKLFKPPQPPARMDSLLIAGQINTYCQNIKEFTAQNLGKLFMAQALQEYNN

How did the binding turn out when “USP9X, endogenous in THP-1 cells (from UniProt Q93008 1-2554) (enzyme)” was run?
The binding was “binds”.

“USP7, endogenous in THP-1 cells (from UniProt Q93009 1-1102) (enzyme)” was tested. Which binding did it give?
Its binding is “binds”.

“BRCC3 (BRCA1/BRCA2-containing complex subunit 3), endogenous in THP-1 cells (from UniProt P46736 1-316) (enzyme)” was tested. Which binding did it give?
The binding was “binds”.

With “EIF3H (eukaryotic translation initiation factor 3 subunit H), endogenous in THP-1 cells (from UniProt O15372 1-352)” as the molecule, how does the binding read?
The binding was “binds”.

B1: USP13 (ubiquitin-specific protease 13), endogenous in THP-1 cells (enzyme, UniProt Q92995 1-863)
chain: MQRRGALFGMPGGSGGRKMAAGDIGELLVPHMPTIRVPRSGDRVYKNECAFSYDSPNSEGGLYVCMNTFLAFGREHVERHFRKTGQSVYMHLKRHVREKVRGASGGALPKRRNSKIFLDLDTDDDLNSDDYEYEDEAKLVIFPDHYEIALPNIEELPALVTIACDAVLSSKSPYRKQDPDTWENELPVSKYANNLTQLDNGVRIPPSGWKCARCDLRENLWLNLTDGSVLCGKWFFDSSGGNGHALEHYRDMGYPLAVKLGTITPDGADVYSFQEEEPVLDPHLAKHLAHFGIDMLHMHGTENGLQDNDIKLRVSEWEVIQESGTKLKPMYGPGYTGLKNLGNSCYLSSVMQAIFSIPEFQRAYVGNLPRIFDYSPLDPTQDFNTQMTKLGHGLLSGQYSKPPVKSELIEQVMKEEHKPQQNGISPRMFKAFVSKSHPEFSSNRQQDAQEFFLHLVNLVERNRIGSENPSDVFRFLVEERIQCCQTRKVRYTERVDYLMQLPVAMEAATNKDELIAYELTRREAEANRRPLPELVRAKIPFSACLQAFSEPENVDDFWSSALQAKSAGVKTSRFASFPEYLVVQIKKFTFGLDWVPKKFDVSIDMPDLLDINHLRARGLQPGEEELPDISPPIVIPDDSKDRLMNQLIDPSDIDESSVMQLAEMGFPLEACRKAVYFTGNMGAEVAFNWIIVHMEEPDFAEPLTMPGYGGAASAGASVFGASGLDNQPPEEIVAIITSMGFQRNQAIQALRATNNNLERALDWIFSHPEFEEDSDFVIEMENNANANIISEAKPEGPRVKDGSGTYELFAFISHMGTSTMSGHYICHIKKEGRWVIYNDHKVCASERPPKDLGYMYFYRRIPS
With B1 as the molecule, how does the binding read?
Its binding is “binds”.
